# Results: the supplement of paper PMC8728848
# The other results are listed elsewhere or left out.
# B1: Flo11 (Saccharomyces cerevisiae), P08640 (protein)
# chain: MQRPFLLAYLVLSLLFNSALGFPTALVPRGSSEGTSCNSIVNGCPNLDFNWHMDQQNIMQYTLDVTSVSWVQDNTYQITIHVKGKENIDLKYLWSLKIIGVTGPKGTVQLYGYNENTYLIDNPTDFTATFEVYATQDVNSCQVWMPNFQIQFEYLQGSAAQYASSWQWGTTSFDLSTGCNNYDNQGHSQTDFPGFYWNIDCDNNCGGTKSSTTTSSTSESSTTTSSTSESSTTTSSTSESSTTTSSTSESSTSSSTTAPATPTTTSCTKEKPTPPTTTSCTKEKPTPPHHDTTPCTKKKTTTSKTCTKKTTTPVPTPSSSTTESSSAPVPTPSSSTTESSSAPVTSSTTESSSAPVPTPSSSTTESSSAPVTSSTTESSSAPVTSSTTESSSAPVPTPSSSTTESSSAPVTSSTTESSSAPVTSSTTESSSAPVTSSTTESSSAPVTSSTTESSSAPVPTPSSSTTESSSAPVTSSTTESSSAPVPTPSSSTTESSSAPVTSSTTESSSAPVPTPSSSTTESSSAPAPTPSSSTTESSSAPVTSSTTESSSAPVPTPSSSTTESSSTPVTSSTTESSSAPVPTPSSSTTESSSAPVPTPSSSTTESSSAPAPTPSSSTTESSSAPVTSSTTESSSAPVPTPSSSTTESSSAPVPTPSSSTTESSSAPVPTPSSSTTESSSAPVTSSTTESSSAPVTSSTTESSSAPVPTPSSSTTESSSAPVPTPSSSTTESSSAPVPTPSSSTTESSSAPVTSSTTESSSAPVPTPSSSTTESSSAPVPTPSSSTTESSSAPVPTPSSSTTESSVAPVPTPSSSSNITSSAPSSTPFSSSTESSSVPVPTPSSSTTESSSAPVSSSTTESSVAPVPTPSSSSNITSSAPSSIPFSSTTESFSTGTTVTPSSSKYPGSQTETSVSSTTETTIVPTKTTTSVTTPSTTTITTTVCSTGTNSAGETTSGCSPKTVTTTVPTTTTTSVTTSSTTTITTTVCSTGTNSAGETTSGCSPKTITTTVPCSTSPSETASESTTTSPTTPVTTVVSTTVVTTEYSTSTKPGGEITTTFVTKNIPTTYLTTIAPTPSVTTVTNFTPTTITTTVCSTGTNSAGETTSGCSPKTVTTTVPCSTGTGEYTTEATTLVTTAVTTTVVTTESSTGTNSAGKTTTGYTTKSVPTTYVTTLAPSAPVTPATNAVPTTITTTECSAATNAAGETTSVCSAKTIVSSASAGENTAPSATTPVTTAIPTTVITTESSVGTNSAGETTTGYTTKSIPTTYITTLIPGSNGAKNYETVATATNPISIKTTSQLATTASASSVAPVVTSPSLTGPLQSASGSAVATYSVPSISSTYQGAANIKVLGNFMWLLLALPVVF
# Columns and labels:
# Test in all cases: glycan array binding signal (z-score within array); higher = stronger binding
# Conditions in all cases: glycan notation: IUPAC condensed, linker removed
# [1] = biological target: Fuc(a1-2)Gal(b1-4)[Fuc(a1-3)]GlcNAc
# How it was run: (§1)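 The Consortium for Functional Glycomics database supplied 3228 glycan arrays, of which those lacking an available protein sequence were dropped. The binding signal, a within-array Z-score, was averaged across arrays of the same protein sequence and across linkers. Negative scores can be read as non-binding.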
# [2] = biological target: Fuc(a1-2)Gal(b1-4)[Fuc(a1-3)]GlcNAc(b1-2)Man(a1-3)[Fuc(a1-2)Gal(b1-4)[Fuc(a1-3)]GlcNAc(b1-2)Man(a1-6)]Man(b1-4)GlcNAc(b1-4)GlcNAc
# How it was run: as §1
# [3] = biological target: Fuc(a1-2)Gal(b1-4)[Fuc(a1-3)]GlcNAc(b1-2)[Fuc(a1-2)Gal(b1-4)[Fuc(a1-3)]GlcNAc(b1-4)]Man(a1-3)[Fuc(a1-2)Gal(b1-4)[Fuc(a1-3)]GlcNAc(b1-2)Man(a1-6)]Man(b1-4)GlcNAc(b1-4)GlcNAc
# How it was run: as §1
# [4] = biological target: Fuc(a1-2)Gal(b1-4)[Fuc(a1-3)]GlcNAc(b1-3)Gal(b1-4)[Fuc(a1-3)]GlcNAc
# How it was run: as §1
# [5] = biological target: Fuc(a1-2)Gal(b1-4)[Fuc(a1-3)]GlcNAc(b1-3)Gal(b1-4)[Fuc(a1-3)]GlcNAc(b1-3)Gal(b1-4)[Fuc(a1-3)]GlcNAc
# How it was run: as §1
# [6] = biological target: Fuc(a1-2)Gal(b1-4)[Fuc(a1-3)]GlcNAc(b1-3)GalNAc
# How it was run: as §1
# [7] = biological target: Fuc(a1-2)Gal6S(b1-4)Glc
# How it was run: as §1
# [8] = biological target: Fuc(a1-2)Gal6S(b1-4)Glc6S
# How it was run: as §1
# [9] = biological target: Fuc(a1-2)Gal6S(b1-4)GlcNAc
# How it was run: as §1
# [10] = biological target: Fuc(a1-2)[Gal(a1-3)]Gal
# How it was run: as §1
# [11] = biological target: Fuc(a1-2)[Gal(a1-3)]Gal(b1-3)GalNAc
# How it was run: as §1
# [12] = biological target: Fuc(a1-2)[Gal(a1-3)]Gal(b1-3)GlcNAc
# How it was run: as §1
# [13] = biological target: Fuc(a1-2)[Gal(a1-3)]Gal(b1-3)GlcNAc(b1-2)Man(a1-3)[Fuc(a1-2)[Gal(a1-3)]Gal(b1-3)GlcNAc(b1-2)Man(a1-6)]Man(b1-4)GlcNAc(b1-4)GlcNAc
# How it was run: as §1
# [14] = biological target: Fuc(a1-2)[Gal(a1-3)]Gal(b1-3)GlcNAc(b1-2)Man(a1-3)[Fuc(a1-2)[Gal(a1-3)]Gal(b1-3)GlcNAc(b1-2)Man(a1-6)]Man(b1-4)GlcNAc(b1-4)[Fuc(a1-6)]GlcNAc
# How it was run: as §1
# [15] = biological target: Fuc(a1-2)[Gal(a1-3)]Gal(b1-3)GlcNAc(b1-3)GalNAc
# How it was run: as §1
# [16] = biological target: Fuc(a1-2)[Gal(a1-3)]Gal(b1-4)Glc
# How it was run: as §1
# [17] = biological target: Fuc(a1-2)[Gal(a1-3)]Gal(b1-4)GlcNAc
# How it was run: as §1
# [18] = biological target: Fuc(a1-2)[Gal(a1-3)]Gal(b1-4)GlcNAc(b1-2)Man(a1-3)[Fuc(a1-2)[Gal(a1-3)]Gal(b1-4)GlcNAc(b1-2)Man(a1-6)]Man(b1-4)GlcNAc(b1-4)GlcNAc
# How it was run: as §1
# [19] = biological target: Fuc(a1-2)[Gal(a1-3)]Gal(b1-4)GlcNAc(b1-2)Man(a1-3)[Fuc(a1-2)[Gal(a1-3)]Gal(b1-4)GlcNAc(b1-2)Man(a1-6)]Man(b1-4)GlcNAc(b1-4)[Fuc(a1-6)]GlcNAc
# How it was run: as §1
# [20] = biological target: Fuc(a1-2)[Gal(a1-3)]Gal(b1-4)GlcNAc(b1-3)GalNAc
# How it was run: as §1
# [21] = biological target: Fuc(a1-2)[Gal(a1-3)]Gal(b1-4)[Fuc(a1-3)]Glc
# How it was run: as §1
# [22] = biological target: Fuc(a1-2)[Gal(a1-3)]Gal(b1-4)[Fuc(a1-3)]GlcNAc
# How it was run: as §1
# [23] = biological target: Fuc(a1-2)[Gal(a1-3)]Gal(b1-4)[Fuc(a1-3)]GlcNAc(b1-3)GalNAc
# How it was run: as §1
# [24] = biological target: Fuc(a1-2)[Gal(a1-4)]Gal(b1-4)GlcNAc
# How it was run: as §1
# [25] = biological target: Fuc(a1-2)[GalNAc(a1-3)]Gal
# How it was run: as §1
# [26] = biological target: Fuc(a1-2)[GalNAc(a1-3)]Gal(b1-3)GalNAc(a1-3)[Fuc(a1-2)]Gal(b1-4)GlcNAc
# How it was run: as §1
# [27] = biological target: Fuc(a1-2)[GalNAc(a1-3)]Gal(b1-3)GlcNAc
# How it was run: as §1
# [28] = biological target: Fuc(a1-2)[GalNAc(a1-3)]Gal(b1-3)GlcNAc(b1-2)Man(a1-3)[Fuc(a1-2)[GalNAc(a1-3)]Gal(b1-3)GlcNAc(b1-2)Man(a1-6)]Man(b1-4)GlcNAc(b1-4)GlcNAc
# How it was run: as §1
# [29] = biological target: Fuc(a1-2)[GalNAc(a1-3)]Gal(b1-3)GlcNAc(b1-2)Man(a1-3)[Fuc(a1-2)[GalNAc(a1-3)]Gal(b1-3)GlcNAc(b1-2)Man(a1-6)]Man(b1-4)GlcNAc(b1-4)[Fuc(a1-6)]GlcNAc
# How it was run: as §1
# [30] = biological target: Fuc(a1-2)[GalNAc(a1-3)]Gal(b1-3)GlcNAc(b1-3)GalNAc
# How it was run: as §1
binder,measurement,setting,value
B1,glycan array binding signal (z-score),[1],-0.01
same,glycan array binding signal (z-score),[2],0.704
same,glycan array binding signal (z-score),[3],1.64
same,glycan array binding signal (z-score),[4],0.588
same,glycan array binding signal (z-score),[5],0.258
same,glycan array binding signal (z-score),[6],5.39
same,glycan array binding signal (z-score),[7],1.42
same,glycan array binding signal (z-score),[8],0.012
same,glycan array binding signal (z-score),[9],-0.166
same,glycan array binding signal (z-score),[10],-0.3
same,glycan array binding signal (z-score),[11],-0.253
same,glycan array binding signal (z-score),[12],-0.315
same,glycan array binding signal (z-score),[13],-0.389
same,glycan array binding signal (z-score),[14],1.01
same,glycan array binding signal (z-score),[15],-0.007
same,glycan array binding signal (z-score),[16],0.319
same,glycan array binding signal (z-score),[17],-0.051
same,glycan array binding signal (z-score),[18],-1.04
same,glycan array binding signal (z-score),[19],0.146
same,glycan array binding signal (z-score),[20],-1.11
same,glycan array binding signal (z-score),[21],-0.826
same,glycan array binding signal (z-score),[22],0.665
same,glycan array binding signal (z-score),[23],1.12
same,glycan array binding signal (z-score),[24],-0.665
same,glycan array binding signal (z-score),[25],0.297
same,glycan array binding signal (z-score),[26],1.68
same,glycan array binding signal (z-score),[27],0.142
same,glycan array binding signal (z-score),[28],-0.897
same,glycan array binding signal (z-score),[29],-0.882
same,glycan array binding signal (z-score),[30],1.14

# Part of the list above in another layout.
binder | measurement | setting | value
B1 | glycan array binding signal (z-score) | [20] | -1.11
same | glycan array binding signal (z-score) | [21] | -0.826
